Binding data for one molecule are collected here from paper doi:10.1101/2022.01.18.476601.

By UniProt entry, the sequences of proteins in these tests, tags left out.
UniProt Q01668: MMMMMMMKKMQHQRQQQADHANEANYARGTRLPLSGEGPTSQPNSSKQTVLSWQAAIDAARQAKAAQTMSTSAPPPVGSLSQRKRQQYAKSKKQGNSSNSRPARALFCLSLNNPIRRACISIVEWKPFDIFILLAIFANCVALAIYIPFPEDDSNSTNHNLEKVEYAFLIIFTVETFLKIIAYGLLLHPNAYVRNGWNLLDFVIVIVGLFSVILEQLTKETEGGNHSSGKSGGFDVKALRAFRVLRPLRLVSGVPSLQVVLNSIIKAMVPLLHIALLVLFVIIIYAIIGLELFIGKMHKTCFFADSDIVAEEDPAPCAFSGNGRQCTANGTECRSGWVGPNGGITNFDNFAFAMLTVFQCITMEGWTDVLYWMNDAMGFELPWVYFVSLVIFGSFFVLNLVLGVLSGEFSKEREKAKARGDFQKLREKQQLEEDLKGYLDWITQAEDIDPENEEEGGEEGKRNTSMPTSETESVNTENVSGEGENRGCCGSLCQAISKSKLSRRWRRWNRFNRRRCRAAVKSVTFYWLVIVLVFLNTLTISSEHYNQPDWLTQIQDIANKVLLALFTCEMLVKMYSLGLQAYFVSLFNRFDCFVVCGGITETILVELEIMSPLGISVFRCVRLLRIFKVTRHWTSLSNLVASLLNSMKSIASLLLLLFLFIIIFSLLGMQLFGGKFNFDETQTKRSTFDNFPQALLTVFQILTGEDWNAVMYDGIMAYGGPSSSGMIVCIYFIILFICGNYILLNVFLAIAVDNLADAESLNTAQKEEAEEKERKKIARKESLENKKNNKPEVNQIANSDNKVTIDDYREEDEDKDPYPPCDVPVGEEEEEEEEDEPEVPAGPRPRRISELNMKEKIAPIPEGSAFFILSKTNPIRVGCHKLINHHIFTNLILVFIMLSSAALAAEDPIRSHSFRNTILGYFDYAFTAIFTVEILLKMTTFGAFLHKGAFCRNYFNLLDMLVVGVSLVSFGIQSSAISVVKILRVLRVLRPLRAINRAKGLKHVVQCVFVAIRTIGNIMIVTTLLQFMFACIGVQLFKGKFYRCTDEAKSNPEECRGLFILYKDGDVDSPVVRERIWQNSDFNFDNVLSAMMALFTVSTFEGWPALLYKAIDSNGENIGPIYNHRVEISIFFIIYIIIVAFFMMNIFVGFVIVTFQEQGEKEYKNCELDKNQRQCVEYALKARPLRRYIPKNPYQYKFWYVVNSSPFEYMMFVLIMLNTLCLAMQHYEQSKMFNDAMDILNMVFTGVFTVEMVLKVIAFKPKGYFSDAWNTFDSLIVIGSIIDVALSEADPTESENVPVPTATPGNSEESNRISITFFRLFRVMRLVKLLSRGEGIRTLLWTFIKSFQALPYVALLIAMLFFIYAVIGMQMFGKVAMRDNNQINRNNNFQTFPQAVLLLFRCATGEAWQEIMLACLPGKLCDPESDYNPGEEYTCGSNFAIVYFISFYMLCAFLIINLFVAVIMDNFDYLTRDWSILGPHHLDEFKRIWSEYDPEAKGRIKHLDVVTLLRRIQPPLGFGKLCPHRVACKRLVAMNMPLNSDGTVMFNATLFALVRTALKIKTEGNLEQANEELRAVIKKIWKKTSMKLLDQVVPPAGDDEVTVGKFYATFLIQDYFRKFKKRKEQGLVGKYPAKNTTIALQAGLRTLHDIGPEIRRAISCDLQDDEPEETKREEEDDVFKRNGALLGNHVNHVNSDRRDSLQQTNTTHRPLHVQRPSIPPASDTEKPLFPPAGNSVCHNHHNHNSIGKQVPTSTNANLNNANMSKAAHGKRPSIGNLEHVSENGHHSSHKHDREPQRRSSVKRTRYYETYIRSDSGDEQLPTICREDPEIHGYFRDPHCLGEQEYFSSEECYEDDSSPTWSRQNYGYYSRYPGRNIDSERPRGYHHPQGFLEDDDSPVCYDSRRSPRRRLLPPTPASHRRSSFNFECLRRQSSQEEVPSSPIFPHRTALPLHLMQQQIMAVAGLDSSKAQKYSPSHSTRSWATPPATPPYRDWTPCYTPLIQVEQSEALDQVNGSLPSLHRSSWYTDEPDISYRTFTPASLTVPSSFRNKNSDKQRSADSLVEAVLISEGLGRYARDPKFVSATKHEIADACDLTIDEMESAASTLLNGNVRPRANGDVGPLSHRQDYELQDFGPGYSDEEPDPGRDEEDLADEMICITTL
UniProt Q13936: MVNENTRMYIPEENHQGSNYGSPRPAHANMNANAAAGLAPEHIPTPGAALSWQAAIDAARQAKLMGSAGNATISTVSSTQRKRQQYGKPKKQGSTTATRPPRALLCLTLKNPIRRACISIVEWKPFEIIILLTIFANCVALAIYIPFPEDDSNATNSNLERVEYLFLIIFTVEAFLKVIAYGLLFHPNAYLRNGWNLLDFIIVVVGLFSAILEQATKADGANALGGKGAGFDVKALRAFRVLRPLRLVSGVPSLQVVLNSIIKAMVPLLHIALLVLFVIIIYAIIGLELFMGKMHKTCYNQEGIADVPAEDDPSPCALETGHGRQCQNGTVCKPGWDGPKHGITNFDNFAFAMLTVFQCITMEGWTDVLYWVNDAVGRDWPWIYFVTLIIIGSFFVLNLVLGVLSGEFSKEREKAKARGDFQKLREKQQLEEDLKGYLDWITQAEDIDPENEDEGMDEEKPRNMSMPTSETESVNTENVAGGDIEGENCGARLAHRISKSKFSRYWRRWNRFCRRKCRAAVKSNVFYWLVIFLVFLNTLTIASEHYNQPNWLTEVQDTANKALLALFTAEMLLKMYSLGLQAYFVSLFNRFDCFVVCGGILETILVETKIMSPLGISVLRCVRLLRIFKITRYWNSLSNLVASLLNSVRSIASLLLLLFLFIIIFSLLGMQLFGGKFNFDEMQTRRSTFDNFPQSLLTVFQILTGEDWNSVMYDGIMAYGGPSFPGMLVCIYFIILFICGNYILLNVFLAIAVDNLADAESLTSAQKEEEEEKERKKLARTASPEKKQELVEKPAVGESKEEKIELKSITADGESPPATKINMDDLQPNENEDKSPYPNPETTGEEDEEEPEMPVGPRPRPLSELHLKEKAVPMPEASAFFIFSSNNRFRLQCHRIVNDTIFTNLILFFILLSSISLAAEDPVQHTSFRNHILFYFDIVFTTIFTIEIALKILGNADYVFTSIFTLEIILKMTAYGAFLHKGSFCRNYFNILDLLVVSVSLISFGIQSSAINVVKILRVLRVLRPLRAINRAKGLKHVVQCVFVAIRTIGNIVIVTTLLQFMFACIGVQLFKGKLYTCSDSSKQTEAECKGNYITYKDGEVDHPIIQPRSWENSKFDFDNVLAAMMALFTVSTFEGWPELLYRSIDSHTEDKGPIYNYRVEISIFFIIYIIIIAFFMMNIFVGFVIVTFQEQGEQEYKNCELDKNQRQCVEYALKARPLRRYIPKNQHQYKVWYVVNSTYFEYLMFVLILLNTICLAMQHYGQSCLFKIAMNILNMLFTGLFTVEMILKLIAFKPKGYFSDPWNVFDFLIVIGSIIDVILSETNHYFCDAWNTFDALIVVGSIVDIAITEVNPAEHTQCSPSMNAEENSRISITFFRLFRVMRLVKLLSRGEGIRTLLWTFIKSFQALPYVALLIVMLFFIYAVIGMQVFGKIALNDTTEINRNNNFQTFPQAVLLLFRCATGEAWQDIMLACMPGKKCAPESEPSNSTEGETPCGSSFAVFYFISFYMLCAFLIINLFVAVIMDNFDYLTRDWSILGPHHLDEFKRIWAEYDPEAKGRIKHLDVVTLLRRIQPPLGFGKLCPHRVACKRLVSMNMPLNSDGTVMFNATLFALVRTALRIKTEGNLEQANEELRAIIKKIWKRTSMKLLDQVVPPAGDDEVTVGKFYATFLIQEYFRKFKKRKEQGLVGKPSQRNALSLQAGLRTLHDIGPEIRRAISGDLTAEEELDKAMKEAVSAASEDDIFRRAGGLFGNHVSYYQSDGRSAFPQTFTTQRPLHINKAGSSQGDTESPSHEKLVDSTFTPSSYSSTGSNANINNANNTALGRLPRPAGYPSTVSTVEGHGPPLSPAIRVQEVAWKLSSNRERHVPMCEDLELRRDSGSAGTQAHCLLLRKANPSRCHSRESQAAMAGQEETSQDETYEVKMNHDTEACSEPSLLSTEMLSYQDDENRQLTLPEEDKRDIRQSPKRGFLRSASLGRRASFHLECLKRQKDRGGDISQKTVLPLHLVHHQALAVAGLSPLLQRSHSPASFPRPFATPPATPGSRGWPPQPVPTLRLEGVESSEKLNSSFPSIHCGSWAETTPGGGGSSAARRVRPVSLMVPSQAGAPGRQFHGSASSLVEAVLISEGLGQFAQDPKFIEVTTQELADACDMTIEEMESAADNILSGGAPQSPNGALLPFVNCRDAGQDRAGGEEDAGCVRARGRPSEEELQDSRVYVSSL

Experiment [1] addresses L-type voltage-gated calcium channel Cav1.3 (human (endogenous in ASCL1-hiNs)) (UniProt Q01668). Briefly: proximity ligation.
The target of experiment [2] is L-type voltage-gated calcium channel Cav1.2 (human (endogenous in ASCL1-hiNs)) (UniProt Q13936). Put plainly: proximity ligation.

These are yes or no findings as the source states them, for the method shown. In cells and extracts the contact can be indirect. Some results given as binding are weak or reduced against the parent protein; the word gives no strength.

B1: Bridging Integrator 1 (BIN1) (protein, UniProt O00499 1-593)
chain: MAEMGSKGVTAGKIASNVQKKLTRAQEKVLQKLGKADETKDEQFEQCVQNFNKQLTEGTRLQKDLRTYLASVKAMHEASKKLNECLQEVYEPDWPGRDEANKIAENNDLLWMDYHQKLVDQALLTMDTYLGQFPDIKSRIAKRGRKLVDYDSARHHYESLQTAKKKDEAKIAKPVSLLEKAAPQWCQGKLQAHLVAQTNLLRNQAEEELIKAQKVFEEMNVDLQEELPSLWNSRVGFYVNTFQSIAGLEENFHKEMSKLNQNLNDVLVGLEKQHGSNTFTVKAQPSDNAPAKGNKSPSPPDGSPAATPEIRVNHEPEPAGGATPGATLPKSPSQLRKGPPVPPPPKHTPSKEVKQEQILSLFEDTFVPEISVTTPSQFEAPGPFSEQASLLDLDFDPLPPVTSPVKAPTPSGQSIPWDLWEPTESPAGSLPSGEPSAAEGTFAVSWPSQTAEPGPAQPAEASEVAGGTQPAAGAQEPGETAASEAASSSLPAVVVETFPATVNGTVEGGSGAGRLDLPPGFMFKVQAQHDYTATDTDELQLKAGDVVLVIPFQNPEEQDEGWLMGVKESDWNQHKELEKCRGVFPENFTERVP
For the molecule B1, the binding result in experiment [1] and in experiment [2] was “binds” throughout.
